Measured values from article PMC11847685.
Results are given in words; binding and its absence hold for the method and conditions named. In cells and extracts the contact can be indirect. Some results given as binding are weak or reduced against the parent protein; the word gives no strength. Blank lines part the entries; values can stand above or below the binder they belong to.

Chains of the proteins cited; added tags and fusions are not shown. Lines headed by an entry give the natural chain unless they say otherwise; changes in a name come on top.
UniProt P06401: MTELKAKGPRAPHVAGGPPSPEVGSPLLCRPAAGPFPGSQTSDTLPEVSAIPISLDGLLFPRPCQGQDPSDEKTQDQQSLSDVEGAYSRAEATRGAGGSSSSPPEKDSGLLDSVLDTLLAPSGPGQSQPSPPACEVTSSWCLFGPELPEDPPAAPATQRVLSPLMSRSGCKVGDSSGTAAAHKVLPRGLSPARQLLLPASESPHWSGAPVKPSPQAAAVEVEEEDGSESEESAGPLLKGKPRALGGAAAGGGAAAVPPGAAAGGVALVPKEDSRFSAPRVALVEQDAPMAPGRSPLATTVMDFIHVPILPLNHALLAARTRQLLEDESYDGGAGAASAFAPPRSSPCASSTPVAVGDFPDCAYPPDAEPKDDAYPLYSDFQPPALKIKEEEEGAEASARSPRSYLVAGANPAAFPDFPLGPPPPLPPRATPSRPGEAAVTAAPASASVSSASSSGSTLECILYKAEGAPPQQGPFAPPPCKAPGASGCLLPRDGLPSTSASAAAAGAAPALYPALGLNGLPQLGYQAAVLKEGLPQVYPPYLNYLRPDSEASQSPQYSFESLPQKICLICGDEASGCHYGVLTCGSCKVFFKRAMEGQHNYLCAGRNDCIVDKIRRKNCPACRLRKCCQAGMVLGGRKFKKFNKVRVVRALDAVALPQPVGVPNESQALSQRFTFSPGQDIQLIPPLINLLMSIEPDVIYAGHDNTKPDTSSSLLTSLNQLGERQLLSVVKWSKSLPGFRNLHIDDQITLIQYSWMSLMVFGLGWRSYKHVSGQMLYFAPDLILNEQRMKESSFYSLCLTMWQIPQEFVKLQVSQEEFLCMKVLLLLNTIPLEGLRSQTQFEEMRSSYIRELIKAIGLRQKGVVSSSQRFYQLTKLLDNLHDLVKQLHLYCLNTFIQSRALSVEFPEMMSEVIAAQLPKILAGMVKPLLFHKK

Tests used:
Assay in all cases: co-IP; endogenous proteins of T47D, MCF-7 and BT-483 cell extracts (200 ug protein), primary antibody (2 ug) and protein A agarose beads, washed 5 times with lysis buffer and once with PBS, Western blot; cells with or without P4 (50 nM), with NT siRNA or SHP2 siRNA
[1] = molecular target: Csk (human (endogenous in T47D, MCF-7 and BT-483)) (UniProt P41240)
[2] = molecular target: progesterone receptor (PR) (human (endogenous in T47D, MCF-7 and BT-483)) (UniProt P06401)
[3] = molecular target: caveolin-1 (human (endogenous in T47D, MCF-7 and BT-483)) (UniProt Q03135)
[4] = molecular target: T1, caveolin-1 (human (endogenous in T47D, MCF-7 and BT-483)), Q03135; conditions: remark: other sources report otherwise
T1 chain: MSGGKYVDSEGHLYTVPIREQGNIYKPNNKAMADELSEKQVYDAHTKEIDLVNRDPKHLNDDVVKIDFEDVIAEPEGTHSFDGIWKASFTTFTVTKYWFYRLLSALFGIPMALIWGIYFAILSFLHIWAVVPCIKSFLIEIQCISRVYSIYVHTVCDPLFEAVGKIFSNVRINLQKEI

[5] = molecular target: Csk (human (endogenous in T47D, MCF-7 and BT-483)), P41240; conditions: remark: other sources report otherwise

binding [1]: binds
binding [2]: binds
binding [3]: binds
B1: p140Cap (protein, UniProt Q9C0H9 1-1183)
chain: MGNAPSQDPERSSPPMLSADDAEYPREYRTLGGGGGGGSGGRRFSNVGLVHTSERRHTVIAAQSLEALSGLQKADADRKRDAFMDHLKSKYPQHALALRGQQDRMREQPNYWSFKTRSSRHTQGAQPGLADQAAKLSYASAESLETMSEAELPLGFSRMNRFRQSLPLSRSASQTKLRSPGVLFLQFGEETRRVHITHEVSSLDTLHALIAHMFPQKLTMGMLKSPNTAILIKDEARNVFYELEDVRDIQDRSIIKIYRKEPLYAAFPGSHLTNGDLRREMVYASRESSPTRRLNNLSPAPHLASGSPPPGLPSGLPSGLQSGSPSRSRLSYAGGRPPSYAGSPVHHAAERLGGAPAAQGVSPSPSAILERRDVKPDEDLASKAGGMVLVKGEGLYADPYGLLHEGRLSLAAAAGDPFAYPGAGGLYKRGSVRSLSTYSAAALQSDLEDSLYKAAGGGGPLYGDGYGFRLPPSSPQKLADVAAPPGGPPPPHSPYSGPPSRGSPVRQSFRKDSGSSSVFAESPGGKTRSAGSASTAGAPPSELFPGPGERSLVGFGPPVPAKDTETRERMEAMEKQIASLTGLVQSALLRGSEPETPSEKIEGSNGAATPSAPCGSGGRSSGATPVSGPPPPSASSTPAGQPTAVSRLQMQLHLRGLQNSASDLRGQLQQLRKLQLQNQESVRALLKRTEAELSMRVSEAARRQEDPLQRQRTLVEEERLRYLNDEELITQQLNDLEKSVEKIQRDVSHNHRLVPGPELEEKALVLKQLGETLTELKAHFPGLQSKMRVVLRVEVEAVKFLKEEPQRLDGLLKRCRGVTDTLAQIRRQVDEGVWPPPNNLLSQSPKKVTAETDFNKSVDFEMPPPSPPLNLHELSGPAEGASLTPKGGNPTKGLDTPGKRSVDKAVSVEAAERDWEEKRAALTQYSAKDINRLLEETQAELLKAIPDLDCASKAHPGPAPTPDHKPPKAPHGQKAAPRTEPSGRRGSDELTVPRYRTEKPSKSPPPPPPRRSFPSSHGLTTTRTGEVVVTSKKDSAFIKKAESEELEVQKPQVKLRRAVSEVARPASTPPIMASAIKDEDDEDRIIAELESGGGSVPPMKVVTPGASRLKAAQGQAGSPDKSKHGKQRAEYMRIQAQQQATKPSKEMSGSNETSSPVSEKPSASRTSIPVLTSFGARNSSISF

binding [4]: binds
B2: Csk, P41240 1-450 (enzyme)
chain: MSAIQAAWPSGTECIAKYNFHGTAEQDLPFCKGDVLTIVAVTKDPNWYKAKNKVGREGIIPANYVQKREGVKAGTKLSLMPWFHGKITREQAERLLYPPETGLFLVRESTNYPGDYTLCVSCDGKVEHYRIMYHASKLSIDEEVYFENLMQLVEHYTSDADGLCTRLIKPKVMEGTVAAQDEFYRSGWALNMKELKLLQTIGKGEFGDVMLGDYRGNKVAVKCIKNDATAQAFLAEASVMTQLRHSNLVQLLGVIVEEKGGLYIVTEYMAKGSLVDYLRSRGRSVLGGDCLLKFSLDVCEAMEYLEGNNFVHRDLAARNVLVSEDNVAKVSDFGLTKEASSTQDTGKLPVKWTAPEALREKKFSTKSDVWSFGILLWEIYSFGRVPYPRIPLKDVVPRVEKGYKMDAPDGCPPAVYEVMKNCWHLDAAMRPSFLQLREQLEHIKTHELHL

binding [5]: binds
B3: caveolin-1, Q03135 1-178 (protein)
chain: MSGGKYVDSEGHLYTVPIREQGNIYKPNNKAMADELSEKQVYDAHTKEIDLVNRDPKHLNDDVVKIDFEDVIAEPEGTHSFDGIWKASFTTFTVTKYWFYRLLSALFGIPMALIWGIYFAILSFLHIWAVVPCIKSFLIEIQCISRVYSIYVHTVCDPLFEAVGKIFSNVRINLQKEI

binding [5]: binds
B4: phosphorylated caveolin-1 (p-caveolin-1), Q03135 1-178 (protein)
chain: MSGGKYVDSEGHLYTVPIREQGNIYKPNNKAMADELSEKQVYDAHTKEIDLVNRDPKHLNDDVVKIDFEDVIAEPEGTHSFDGIWKASFTTFTVTKYWFYRLLSALFGIPMALIWGIYFAILSFLHIWAVVPCIKSFLIEIQCISRVYSIYVHTVCDPLFEAVGKIFSNVRINLQKEI
modifications: here or on the partner: phosphorylated (printed as p-caveolin-1); site not given
